# Experimental data reported in PMC6617940.
# Results are given in words; binding and its absence hold for the method and conditions named. In cells and extracts the contact can be indirect. Some entries that bind do so weakly or less than the wild type.
# T1: Ubiquitin-like protein 4A (human (endogenous in PDAC cell lines SW1990, CFPAC-1, PANC-1, BxPC-3)) (UniProt P11441)
# T1 sequence: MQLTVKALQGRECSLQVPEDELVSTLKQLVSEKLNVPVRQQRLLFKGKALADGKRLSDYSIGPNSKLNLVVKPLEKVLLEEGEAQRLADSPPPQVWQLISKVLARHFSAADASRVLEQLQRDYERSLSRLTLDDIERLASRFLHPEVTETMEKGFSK
# T2: Lysosome associated membrane protein-1 (human (endogenous in PDAC cell lines SW1990, CFPAC-1, PANC-1, BxPC-3)) (UniProt P11279)
# T2 sequence: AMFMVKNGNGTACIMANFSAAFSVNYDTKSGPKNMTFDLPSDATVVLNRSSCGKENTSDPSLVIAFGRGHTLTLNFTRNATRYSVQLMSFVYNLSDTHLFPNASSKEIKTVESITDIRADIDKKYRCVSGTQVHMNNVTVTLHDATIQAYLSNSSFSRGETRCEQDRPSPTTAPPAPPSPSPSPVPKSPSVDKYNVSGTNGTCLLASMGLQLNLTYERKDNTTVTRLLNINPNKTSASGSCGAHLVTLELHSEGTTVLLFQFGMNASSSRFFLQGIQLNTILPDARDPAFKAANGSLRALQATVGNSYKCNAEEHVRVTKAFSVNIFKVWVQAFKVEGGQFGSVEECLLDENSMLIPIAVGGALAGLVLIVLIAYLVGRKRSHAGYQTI
# Legend:
# [1] = biological target: T1, Ubiquitin-like protein 4A (human (endogenous in PDAC cell lines SW1990, CFPAC-1, PANC-1, BxPC-3)); experiment: co-IP; lysates of four PDAC cell lines (2 x 10^7 cells, polysome lysis buffer: 100 mM KCl, 4 mM MgCl2, 10 mM HEPES pH 7.0, 0.5% Nonidet P-40, 1 mM DTT); antibody (UBL4A or LAMP1) or control IgG on protein G agarose beads; lysate incubated with beads 2 h at RT; western blotting
# [2] = biological target: T2, Lysosome associated membrane protein-1 (human (endogenous in PDAC cell lines SW1990, CFPAC-1, PANC-1, BxPC-3)); experiment: as above
binding [1],binding [2],Binder
binds,–,"Lysosome associated membrane protein-1 (protein, UniProt P11279-1 29-417) AMFMVKNGNGTACIMANFSAAFSVNYDTKSGPKNMTFDLPSDATVVLNRSSCGKENTSDPSLVIAFGRGHTLTLNFTRNATRYSVQLMSFVYNLSDTHLFPNASSKEIKTVESITDIRADIDKKYRCVSGTQVHMNNVTVTLHDATIQAYLSNSSFSRGETRCEQDRPSPTTAPPAPPSPSPSPVPKSPSVDKYNVSGTNGTCLLASMGLQLNLTYERKDNTTVTRLLNINPNKTSASGSCGAHLVTLELHSEGTTVLLFQFGMNASSSRFFLQGIQLNTILPDARDPAFKAANGSLRALQATVGNSYKCNAEEHVRVTKAFSVNIFKVWVQAFKVEGGQFGSVEECLLDENSMLIPIAVGGALAGLVLIVLIAYLVGRKRSHAGYQTI"
–,binds,"Ubiquitin-like protein 4A (protein, UniProt P11441 1-157) MQLTVKALQGRECSLQVPEDELVSTLKQLVSEKLNVPVRQQRLLFKGKALADGKRLSDYSIGPNSKLNLVVKPLEKVLLEEGEAQRLADSPPPQVWQLISKVLARHFSAADASRVLEQLQRDYERSLSRLTLDDIERLASRFLHPEVTETMEKGFSK"
